± gives the standard deviation of the averaged measurements. Differences between knockout arms are mostly noise.
Tested on: ZR-75-1
Assay: relative cell number vs DMSO control (72 h) (% of DMSO); higher = less growth inhibition (more cells)
Description: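 QMAP-Seq: a pool of 5 breast cancer cell lines (ZR-75-1, SKBR3, HCC-38, MDA-MB-231, BT-20), each carrying 12 doxycycline-inducible Cas9 sgRNA perturbations (11 knockouts plus non-targeting sgNT), was treated with compounds for 72 h at four 10-fold doses (10 nM-10 uM or 1 nM-1 uM range). Barcodes were amplified and sequenced, and cell number was interpolated from 293T spike-in standard curves. The result is expressed as % of the median of DMSO wells. Two biological replicates.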

[1] = sgRNA knockout: sgATF3, 1000 nM
[2] = sgRNA knockout: sgATF3, 10000 nM
[3] = sgRNA knockout: sgATF4, 1000 nM
[4] = sgRNA knockout: sgATF4, 10000 nM
[5] = sgRNA knockout: sgATF6, 1000 nM
[6] = sgRNA knockout: sgATF6, 10000 nM
[7] = sgRNA knockout: sgATG7, 1000 nM
[8] = sgRNA knockout: sgATG7, 10000 nM
[9] = sgRNA knockout: sgERN1, 1000 nM
[10] = sgRNA knockout: sgERN1, 10000 nM
[11] = sgRNA knockout: sgHSF2, 1000 nM
[12] = sgRNA knockout: sgHSF2, 10000 nM
[13] = sgRNA knockout: sgNFE2L2, 10 nM
[14] = sgRNA knockout: sgNFE2L2, 100 nM
[15] = sgRNA knockout: sgNFE2L2, 1000 nM
[16] = sgRNA knockout: sgNFE2L2, 10000 nM
[17] = sgRNA knockout: sgSLC35F2, 10 nM
[18] = sgRNA knockout: sgSLC35F2, 100 nM
[19] = sgRNA knockout: sgSLC35F2, 1000 nM
[20] = sgRNA knockout: sgSLC35F2, 10000 nM
[21] = sgRNA knockout: sgXBP1, 1000 nM
[22] = sgRNA knockout: sgXBP1, 10000 nM

SMILES	relative cell number (sgRNA knockout: sgATF3, 10 nM)	relative cell number (sgRNA knockout: sgATF3, 100 nM)	relative cell number [1]	relative cell number [2]	relative cell number (sgRNA knockout: sgATF4, 10 nM)	relative cell number (sgRNA knockout: sgATF4, 100 nM)	relative cell number [3]	relative cell number [4]	relative cell number (sgRNA knockout: sgATF6, 10 nM)	relative cell number (sgRNA knockout: sgATF6, 100 nM)	relative cell number [5]	relative cell number [6]	relative cell number (sgRNA knockout: sgATG7, 10 nM)	relative cell number (sgRNA knockout: sgATG7, 100 nM)	relative cell number [7]	relative cell number [8]	relative cell number (sgRNA knockout: sgERN1, 10 nM)	relative cell number (sgRNA knockout: sgERN1, 100 nM)	relative cell number [9]	relative cell number [10]	relative cell number (sgRNA knockout: sgHSF2, 10 nM)	relative cell number (sgRNA knockout: sgHSF2, 100 nM)	relative cell number [11]	relative cell number [12]	relative cell number [13]	relative cell number [14]	relative cell number [15]	relative cell number [16]	relative cell number [17]	relative cell number [18]	relative cell number [19]	relative cell number [20]	relative cell number (sgRNA knockout: sgXBP1, 10 nM)	relative cell number (sgRNA knockout: sgXBP1, 100 nM)	relative cell number [21]	relative cell number [22]
C=CCc1cccc(/C=N/NC(=O)CN2CCN(Cc3ccccc3)CC2)c1O [PAC1]	127 ± 4.5	102 ± 29	97.3 ± 3.9	24.8 ± 11	80.6 ± 4.7	80 ± 25	84.1 ± 12	22.9 ± 14	64.8 ± 21	93.4 ± 40	94.9 ± 43	15.2 ± 11	108 ± 11	94 ± 16	90.2 ± 31	22.3 ± 7.8	76.9 ± 40	93.8 ± 14	94.5 ± 12	23.1 ± 14	114 ± 10	92.2 ± 12	86.8 ± 2.3	19.6 ± 1.8	78.3 ± 23	74.7 ± 34	78.5 ± 6.9	20.4 ± 11	69.6 ± 49	47.7 ± 7.4	71.4 ± 37	17.8 ± 3	87.5 ± 25	83.8 ± 7.8	81.6 ± 7.8	19.4 ± 6.5
CC(=O)O[C@H]1C(=O)[C@@]2(C)[C@H]([C@H](OC(=O)c3ccccc3)[C@]3(O)C[C@H](OC(=O)[C@H](O)[C@@H](NC(=O)c4ccccc4)c4ccccc4)C(C)=C1C3(C)C)[C@]1(OC(C)=O)CO[C@@H]1C[C@@H]2O [Paclitaxel]	39.3 ± 6.9	20.9 ± 13	32.1 ± 2.6	50.4 ± 20	48.1 ± 30	30.1 ± 17	46.4 ± 4.9	52.8 ± 17	39.6 ± 17	28.9 ± 15	33.1 ± 24	51.4 ± 15	29.3 ± 3.8	31.5 ± 12	22 ± 7.8	47.3 ± 5.2	51.6 ± 5.5	28.5 ± 2.8	28.5 ± 4.5	53 ± 8.6	41.8 ± 2.6	23.9 ± 5.5	27.2 ± 8.6	34.2 ± 1.9	30 ± 12	23.4 ± 13	32.4 ± 7.7	39.1 ± 14	53.5 ± 46	36.8 ± 23	24 ± 16	42.7 ± 11	33.8 ± 2.5	28.6 ± 11	28.3 ± 2.1	31.8 ± 4.7
C=C1C(=O)O[C@H]2[C@H]1CC/C(C)=C/CC[C@@]1(C)O[C@@H]21 [Parthenolide]	125 ± 9.2	95.8 ± 40	88.74 ± 0.86	106 ± 2.3	139 ± 45	128 ± 60	113 ± 15	82 ± 7.1	98.7 ± 23	147 ± 47	55.1 ± 15	104 ± 22	99.1 ± 20	123 ± 1.9	91.2 ± 49	101 ± 36	123 ± 28	92.7 ± 34	96.3 ± 14	115 ± 19	102 ± 17	97.4 ± 18	107 ± 13	94.4 ± 16	115 ± 20	111 ± 20	109 ± 51	107 ± 12	70.7 ± 7.9	96.7 ± 17	70.5 ± 10	96 ± 43	94.7 ± 2.5	99.8 ± 26	105 ± 12	108.03 ± 0.059
CNC(=O)c1cc(Oc2ccc(NC(=O)Nc3ccc(Cl)c(C(F)(F)F)c3)c(F)c2)ccn1 [Regorafenib]	82.7 ± 8	119 ± 15	77.2 ± 5.6	25.5 ± 10	101 ± 45	132 ± 25	100 ± 8.7	29.2 ± 18	98.1 ± 41	108 ± 9.9	118 ± 10	28.5 ± 10	90.79 ± 0.67	130 ± 8.6	113 ± 1.2	24.3 ± 5.3	97.28 ± 0.7	104 ± 29	90.2 ± 19	31.2 ± 5.3	102 ± 11	125 ± 15	96.5 ± 1	25 ± 3.1	104 ± 7.5	106 ± 9.6	121 ± 1.9	28.1 ± 7.8	48.2 ± 18	73.1 ± 26	109 ± 26	12.3 ± 3.3	98.5 ± 22	92.4 ± 25	118 ± 1.6	30.7 ± 5.8
CC(C)(C)c1cnc(CSc2cnc(NC(=O)C3CCNCC3)s2)o1 [SNS032]	77.3 ± 11	90.8 ± 6.4	9.54 ± 2.5	23.953 ± 0.019	118 ± 28	112 ± 16	20.6 ± 6.4	22.7 ± 4	74.8 ± 14	69.1 ± 56	5.77 ± 1.4	20.5 ± 7.9	99.3 ± 2.6	79.8 ± 1.1	10.21 ± 0.08	28.9 ± 15	112 ± 12	87.4 ± 1.8	15.48 ± 0.053	34.3 ± 6.5	109 ± 18	89.5 ± 3.5	14.7 ± 2.8	24.4 ± 3.2	126 ± 34	80.3 ± 11	11.8 ± 1.7	27.9 ± 4.1	89.5 ± 53	68.1 ± 0.85	19 ± 13	10 ± 4.3	113 ± 31	92.1 ± 9	14.1 ± 1.4	23 ± 3.1
COc1cc2nccc(Oc3ccc(NC(=O)Nc4cc(C)on4)c(Cl)c3)c2cc1OC [Tivozanib]	82.3 ± 43	98.2 ± 23	95 ± 4.6	54.8 ± 26	117 ± 17	109 ± 16	86.2 ± 12	43.1 ± 3.4	107 ± 50	79.79 ± 0.33	122 ± 26	39 ± 16	84.3 ± 33	109 ± 2.5	72.4 ± 14	38.1 ± 4	84.3 ± 23	97.864 ± 0.054	83.6 ± 22	53.8 ± 1.9	126 ± 7.7	115 ± 21	102 ± 15	43.2 ± 11	104 ± 16	113 ± 14	120 ± 6.7	39.2 ± 4.4	82 ± 38	108 ± 1.1	102 ± 18	41.1 ± 24	110 ± 31	98.1 ± 3.3	108 ± 7.2	42.5 ± 4.5
